{
  "source": "paper PMC9931008",
  "about": "(Journal of Food and Drug Analysis, 2022)",
  "origin": "cited, not measured here",
  "conditions": "humans; cited from earlier work",
  "data": [
    {"smiles": "COC(=O)C1=C(C)NC(C)=C(C(=O)OC)C1c1ccccc1[N+](=O)[O-]", "note": "[Nifedipine, nifedipine]", "values": [
      {"measurement": "absolute bioavailability", "result": "40–50%"},
      {"measurement": "absorption from the gastrointestinal tract", "result": "~100", "unit": "%"},
      {"measurement": "intestinal elimination share of the first-pass metabolism", "result": "36–52%"}
    ]}
  ]
}
